± gives the standard error. The uncertainty is large for many entries.
B1: glmS ribozyme (parent)
chain: AUAAAAGCGCCAGAACUACAGAAAUGUAGUUGACGAGGAGGAGGUUUAUCGAAUUUUCGGCGGAUGCCUCCAAA

Variants of: B1
Experiment: self-cleavage kobs at 2500 uM GlcN6P; higher = faster cleavage; RNA array
Conditions: with glucosamine-6-phosphate
Method in brief: (§1)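 Tiles bearing barcoded ribozyme variants, transcribed in situ by E. coli RNA polymerase on sequenced MiSeq chips, were imaged over ~14 h at 37 °C using a hybridised Cy3 probe. Glucosamine-6-phosphate was supplied at 40 μM to 10 mM in HEPES/KCl/Mg(OAc)2 buffer. kobs came from one- or two-exponential decay fits to normalised per-tile medians, and weighted Michaelis–Menten fits then provided kcat and KM.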

Row | Variant | self-cleavage kobs at 2500 uM GlcN6P [s⁻¹]
1 | G32A U57A C70G | 7.54e-05 ± 6.3e-05
2 | G32C C58U | 3.4e-05 ± 2e-05
3 | G32C G37A U55A C67A C68A | 6.66e-05 ± 3.3e-05
4 | G32U G35C U46A C67G C68A | 0.00106 ± 0.00066
5 | A33C C71U | 2.83e-05 ± 1.6e-05
6 | A33C U45G U46C | 3.62e-05 ± 2e-05
7 | A33C U47G | 1.45e-05 ± 1.3e-05
8 | A33G C68G | 2.48e-05 ± 1.4e-05
9 | A33G G51A G62U C68A | 6.3e-05 ± 3.8e-05
10 | A33U C50U C61A C68G C70U | 4.56e-05 ± 2.8e-05
11 | A33U C50U C68U | 3.31e-05 ± 3.3e-05
12 | A33U C70G | 1.81e-05 ± 1.6e-05
13 | A33U G38A A48G G66U U69G | 3.53e-05 ± 2.2e-05
14 | A33U U47A G66A | 2.64e-05 ± 1.7e-05
15 | A33U U47G U55C | 1.97e-05 ± 1.1e-05
16 | A33U U54A C70A | 3.58e-05 ± 1.9e-05
17 | A33U U57A C58U C70A C71G | 3.22e-05 ± 2.1e-05
18 | G35A G60U C67G C68G | 4.81e-05 ± 3e-05
19 | G35C C50G C58A | 3.38e-05 ± 2.5e-05
20 | A36C A52U U56G U65A U69A | 2.23e-05 ± 1.9e-05
21 | A36U A52G C70A | 6.78e-05 ± 3.7e-05
22 | A36U C70A | 0.000253 ± 0.00014
23 | G37A A52G C67A | 3.36e-05 ± 1.9e-05
24 | G37U C70G | 2.67e-05 ± 1.5e-05
25 | G38A | < 1e-05
26 | G38A A42U C50G C67G | 4.65e-05 ± 3.3e-05

Some of the entries above, set out differently:
Row	Variant	self-cleavage kobs at 2500 uM GlcN6P [s⁻¹]
12	A33U C70G	1.81e-05 ± 1.6e-05
13	A33U G38A A48G G66U U69G	3.53e-05 ± 2.2e-05

(further entries)

Row | Variant | self-cleavage kobs at 2500 uM GlcN6P [s⁻¹]
27 | G38U C50A U57C C61U C68U | 4.46e-05 ± 2.3e-05
28 | A39C A42C U54A | 3.63e-05 ± 2.5e-05
29 | A39C A48C U55A | 2.93e-05 ± 1.6e-05
30 | A39C G44U | 1.77e-05 ± 1.4e-05
31 | A39U G41C | 1.47e-05 ± 1.3e-05
32 | G40A A42C | 1.71e-05 ± 1.3e-05
33 | G41U U56C | 1.87e-05 ± 1.1e-05
34 | A42G A48G U54A | 4.83e-05 ± 2.9e-05
35 | A42G U54C | 0.0168 ± 0.0094
36 | A42U C68G | 2.49e-05 ± 1.7e-05
37 | A42U U56C C71U | 2.88e-05 ± 2.4e-05
38 | G43U U46G | 3.53e-05 ± 2e-05
39 | G43U U54C | 1.62e-05 ± 1.5e-05
40 | G44U U45G A53C | 0.000862 ± 0.00046
41 | U45A A53G | 0.0366 ± 0.019
42 | U45A U65A | 0.026 ± 0.019
43 | U45C A48U C71U | 4.46e-05 ± 3.3e-05
44 | U45G C58G | 1.95e-05 ± 1.4e-05
45 | U46A C58A | 2.86e-05 ± 2.8e-05
46 | U46A C68U U69C | 3.92e-05 ± 2.8e-05
47 | U46A U65G G66U C71G | 3.91e-05 ± 2.4e-05
48 | U46C C68G | 4.33e-05 ± 3.4e-05
49 | U46G C50U C67U C68A U69G | 9.56e-05 ± 5.9e-05
50 | U46G C68G C71G | 4.2e-05 ± 2.2e-05
51 | U47A C58U | 2.83e-05 ± 1.7e-05
52 | U47C C67U C71A | 6.85e-05 ± 3.5e-05

Row | Variant | self-cleavage kobs at 2500 uM GlcN6P [s⁻¹]
53 | U47C U57C C70U | 2.46e-05 ± 1.9e-05
54 | A48C C50U U55A C67G C68G | 5.61e-05 ± 2.8e-05
55 | A48G C61U | 4.12e-05 ± 2.2e-05
56 | A48G U65A C68A | 4.17e-05 ± 2.4e-05
57 | A48U A64U C70U | 3.63e-05 ± 2.1e-05
58 | U49A C58A G62U | 5.2e-05 ± 4.7e-05
59 | U49A U69A | 4.42e-05 ± 2.4e-05
60 | C50A C67U C70G | 0.00105 ± 0.00059
61 | C50G G62U G66C C70A | 2.91e-05 ± 1.8e-05
62 | C50U U54A | 1.87e-05 ± 1.5e-05
63 | G51U C61A C68A | 3.18e-05 ± 2.3e-05
64 | A52C C67U | 1.73e-05 ± 1.7e-05
65 | A52G A53U U56C | 3.28e-05 ± 1.8e-05
66 | A52G C58G | 1.9e-05 ± 1.6e-05
67 | A53C G66U C70G | 0.000126 ± 7e-05
68 | U54C C58G | 1.31e-05 ± 1.2e-05
69 | U54C U56G | 0.00392 ± 0.0029
70 | U54G U57G | 2.39e-05 ± 1.8e-05
71 | U55C C58U | 1.11e-05 ± 7.4e-06
72 | U57A C68A C71G | 3.69e-05 ± 2.8e-05
73 | G59A C67A | 2.45e-05 ± 1.4e-05
74 | G59A G62A C70G | 2.14e-05 ± 2e-05
75 | G59U C70A | 2.37e-05 ± 1.6e-05
76 | G60A C68A | 0.000533 ± 0.00036

Some of the entries so far, tab-delimited.
Row	Variant	self-cleavage kobs at 2500 uM GlcN6P [s⁻¹]
64	A52C C67U	1.73e-05 ± 1.7e-05
65	A52G A53U U56C	3.28e-05 ± 1.8e-05

Variants of: B1
Experiment: self-cleavage kobs at 10000 uM GlcN6P; higher = faster cleavage; RNA array
Conditions: with glucosamine-6-phosphate
Method in brief: as §1

Row | Variant | self-cleavage kobs at 10000 uM GlcN6P [s⁻¹]
77 | G32C C58U | 3.01e-05 ± 1.9e-05
78 | A33U C70G | 1.35e-05 ± 1.1e-05
79 | A36U A52G C70A | 3.08e-05 ± 1.6e-05
80 | G40A A42C | 2.34e-05 ± 1.8e-05
81 | G43U U46G | 2.29e-05 ± 1.7e-05
82 | U46A C58A | 2.36e-05 ± 1.6e-05
83 | U46G C68G C71G | 3.14e-05 ± 1.8e-05
84 | A48G C61U | 2.43e-05 ± 1.6e-05
85 | C50G G62U G66C C70A | 2.46e-05 ± 2e-05
86 | A52G C58G | 1.52e-05 ± 1.4e-05
87 | G59A C67A | 1.13e-05 ± 8.7e-06

Source: the supplement of paper PMC7125110
